From the supplement of paper PMC8728848
This is one part of the list.

How the values were obtained:
Test in all cases: glycan array binding signal (z-score within array); higher = stronger binding
Details in all cases: glycan notation: IUPAC condensed, linker removed
[1] = target: GlcNAc(b1-2)[GlcNAc(b1-4)]Man(a1-3)[GlcNAc(b1-4)][GlcNAc(b1-2)Man(a1-6)]Man(b1-4)GlcNAc(b1-4)GlcNAc
Procedure, shortened: (§1)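 From the Consortium for Functional Glycomics database, 3228 arrays were curated, keeping only those whose protein sequence was available. Binding is given as a within-array Z-score averaged across arrays sharing a protein sequence and across linkers. Negative Z-scores can be read as non-binding.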

[2] = target: GlcNAc(b1-2)[GlcNAc(b1-4)]Man(a1-3)[GlcNAc(b1-4)][GlcNAc(b1-2)[GlcNAc(b1-6)]Man(a1-6)]Man(b1-4)GlcNAc(b1-4)GlcNAc
Procedure, shortened: as §1

[3] = target: GlcNAc(b1-2)[GlcNAc(b1-4)]Man(a1-3)[GlcNAc(b1-4)][GlcNAc(b1-2)[GlcNAc(b1-6)]Man(a1-6)]Man(b1-4)GlcNAc(b1-4)[Fuc(a1-6)]GlcNAc
Procedure, shortened: as §1

[4] = target: GlcNAc(b1-2)[GlcNAc(b1-6)]Man(a1-6)[GlcNAc(b1-2)Man(a1-3)]Man(b1-4)GlcNAc(b1-4)GlcNAc
Procedure, shortened: as §1

[5] = target: GlcNAc(b1-2)[GlcNAc(b1-6)]Man(a1-6)[GlcNAc(b1-2)Man(a1-3)]Man(b1-4)GlcNAc(b1-4)[Fuc(a1-6)]GlcNAc
Procedure, shortened: as §1

[6] = target: GlcNAc(b1-2)[GlcNAc(b1-6)]Man(a1-6)[GlcNAc(b1-4)][GlcNAc(b1-2)Man(a1-3)]Man(b1-4)GlcNAc(b1-4)GlcNAc
Procedure, shortened: as §1

GlcNAc(b1-3)Fuc = target: GlcNAc(b1-3)Fuc
Procedure, shortened: as §1

GlcNAc(b1-3)Gal = target: GlcNAc(b1-3)Gal
Procedure, shortened: as §1

[7] = target: GlcNAc(b1-3)Gal(b1-3)GalNAc
Procedure, shortened: as §1

GlcNAc(b1-3)Gal(b1-4)Glc = target: GlcNAc(b1-3)Gal(b1-4)Glc
Procedure, shortened: as §1

[8] = target: GlcNAc(b1-3)Gal(b1-4)GlcNAc
Procedure, shortened: as §1

[9] = target: GlcNAc(b1-3)Gal(b1-4)GlcNAc(b1-2)Man(a1-3)[GlcNAc(b1-3)Gal(b1-4)GlcNAc(b1-2)Man(a1-6)]Man(b1-4)GlcNAc(b1-4)GlcNAc
Procedure, shortened: as §1

[10] = target: GlcNAc(b1-3)Gal(b1-4)GlcNAc(b1-2)Man(a1-3)[GlcNAc(b1-3)Gal(b1-4)GlcNAc(b1-2)Man(a1-6)]Man(b1-4)GlcNAc(b1-4)[Fuc(a1-6)]GlcNAc
Procedure, shortened: as §1

[11] = target: GlcNAc(b1-3)Gal(b1-4)GlcNAc(b1-2)[GlcNAc(b1-3)Gal(b1-4)GlcNAc(b1-6)]Man(a1-6)[GlcNAc(b1-3)Gal(b1-4)GlcNAc(b1-2)Man(a1-3)]Man(b1-4)GlcNAc(b1-4)GlcNAc
Procedure, shortened: as §1

[12] = target: GlcNAc(b1-3)Gal(b1-4)GlcNAc(b1-3)Gal(b1-4)GlcNAc
Procedure, shortened: as §1

[13] = target: GlcNAc(b1-3)Gal(b1-4)GlcNAc(b1-3)Gal(b1-4)GlcNAc(b1-2)Man(a1-3)[GlcNAc(b1-3)Gal(b1-4)GlcNAc(b1-3)Gal(b1-4)GlcNAc(b1-2)Man(a1-6)]Man(b1-4)GlcNAc(b1-4)GlcNAc
Procedure, shortened: as §1

[14] = target: GlcNAc(b1-3)Gal(b1-4)GlcNAc(b1-3)Gal(b1-4)GlcNAc(b1-2)Man(a1-3)[GlcNAc(b1-3)Gal(b1-4)GlcNAc(b1-3)Gal(b1-4)GlcNAc(b1-2)Man(a1-6)]Man(b1-4)GlcNAc(b1-4)[Fuc(a1-6)]GlcNAc
Procedure, shortened: as §1

[15] = target: GlcNAc(b1-3)Gal(b1-4)GlcNAc(b1-3)Gal(b1-4)GlcNAc(b1-2)[GlcNAc(b1-3)Gal(b1-4)GlcNAc(b1-3)Gal(b1-4)GlcNAc(b1-6)]Man(a1-6)[GlcNAc(b1-3)Gal(b1-4)GlcNAc(b1-3)Gal(b1-4)GlcNAc(b1-2)Man(a1-3)]Man(b1-4)GlcNAc(b1-4)[Fuc(a1-6)]GlcNAc
Procedure, shortened: as §1

[16] = target: GlcNAc(b1-3)Gal(b1-4)GlcNAc(b1-3)Gal(b1-4)GlcNAc(b1-3)Gal(b1-4)GlcNAc(b1-2)Man(a1-3)[GlcNAc(b1-3)Gal(b1-4)GlcNAc(b1-3)Gal(b1-4)GlcNAc(b1-3)Gal(b1-4)GlcNAc(b1-2)Man(a1-6)]Man(b1-4)GlcNAc(b1-4)GlcNAc
Procedure, shortened: as §1

[17] = target: GlcNAc(b1-3)Gal(b1-4)GlcNAc(b1-3)Gal(b1-4)GlcNAc(b1-3)Gal(b1-4)GlcNAc(b1-2)Man(a1-3)[GlcNAc(b1-3)Gal(b1-4)GlcNAc(b1-3)Gal(b1-4)GlcNAc(b1-3)Gal(b1-4)GlcNAc(b1-2)Man(a1-6)]Man(b1-4)GlcNAc(b1-4)[Fuc(a1-6)]GlcNAc
Procedure, shortened: as §1

[18] = target: GlcNAc(b1-3)Gal(b1-4)GlcNAc(b1-3)Gal(b1-4)GlcNAc(b1-3)Gal(b1-4)GlcNAc(b1-2)[GlcNAc(b1-3)Gal(b1-4)GlcNAc(b1-3)Gal(b1-4)GlcNAc(b1-3)Gal(b1-4)GlcNAc(b1-6)]Man(a1-6)[GlcNAc(b1-3)Gal(b1-4)GlcNAc(b1-3)Gal(b1-4)GlcNAc(b1-3)Gal(b1-4)GlcNAc(b1-2)Man(a1-3)]Man(b1-4)GlcNAc(b1-4)[Fuc(a1-6)]GlcNAc
Procedure, shortened: as §1

[19] = target: GlcNAc(b1-3)Gal(b1-4)GlcNAc(b1-3)Gal(b1-4)GlcNAc(b1-3)Gal(b1-4)GlcNAc(b1-3)Gal(b1-4)GlcNAc(b1-2)Man(a1-3)[GlcNAc(b1-3)Gal(b1-4)GlcNAc(b1-3)Gal(b1-4)GlcNAc(b1-3)Gal(b1-4)GlcNAc(b1-3)Gal(b1-4)GlcNAc(b1-2)Man(a1-6)]Man(b1-4)GlcNAc(b1-4)GlcNAc
Procedure, shortened: as §1

[20] = target: GlcNAc(b1-3)Gal(b1-4)GlcNAc(b1-3)Gal(b1-4)GlcNAc(b1-3)Gal(b1-4)GlcNAc(b1-3)Gal(b1-4)GlcNAc(b1-2)Man(a1-3)[GlcNAc(b1-3)Gal(b1-4)GlcNAc(b1-3)Gal(b1-4)GlcNAc(b1-3)Gal(b1-4)GlcNAc(b1-3)Gal(b1-4)GlcNAc(b1-2)Man(a1-6)]Man(b1-4)GlcNAc(b1-4)[Fuc(a1-6)]GlcNAc
Procedure, shortened: as §1

[21] = target: GlcNAc(b1-3)Gal(b1-4)GlcNAc(b1-3)Gal(b1-4)GlcNAc(b1-3)Gal(b1-4)GlcNAc(b1-3)Gal(b1-4)GlcNAc(b1-2)[GlcNAc(b1-3)Gal(b1-4)GlcNAc(b1-3)Gal(b1-4)GlcNAc(b1-3)Gal(b1-4)GlcNAc(b1-3)Gal(b1-4)GlcNAc(b1-6)]Man(a1-6)[GlcNAc(b1-3)Gal(b1-4)GlcNAc(b1-3)Gal(b1-4)GlcNAc(b1-3)Gal(b1-4)GlcNAc(b1-3)Gal(b1-4)GlcNAc(b1-2)Man(a1-3)]Man(b1-4)GlcNAc(b1-4)[Fuc(a1-6)]GlcNAc
Procedure, shortened: as §1

[22] = target: GlcNAc(b1-3)Gal(b1-4)GlcNAc(b1-3)Gal(b1-4)GlcNAc(b1-3)GalNAc
Procedure, shortened: as §1

[23] = target: GlcNAc(b1-3)Gal(b1-4)GlcNAc(b1-3)GalNAc
Procedure, shortened: as §1

[24] = target: GlcNAc(b1-3)Gal(b1-4)GlcNAc(b1-3)[GlcNAc(b1-3)Gal(b1-4)GlcNAc(b1-3)]GalNAc
Procedure, shortened: as §1

[25] = target: GlcNAc(b1-3)Gal(b1-4)GlcNAc(b1-6)[Gal(b1-3)]GalNAc
Procedure, shortened: as §1

[26] = target: GlcNAc(b1-3)Gal(b1-4)GlcNAc(b1-6)[GlcNAc(b1-3)Gal(b1-3)]GalNAc
Procedure, shortened: as §1

[27] = target: GlcNAc(b1-3)Gal(b1-4)GlcNAc(b1-6)[GlcNAc(b1-3)]Gal(b1-4)GlcNAc
Procedure, shortened: as §1

GlcNAc(b1-3)GalNAc = target: GlcNAc(b1-3)GalNAc
Procedure, shortened: as §1

GlcNAc(b1-3)Man = target: GlcNAc(b1-3)Man
Procedure, shortened: as §1

[28] = target: GlcNAc(b1-3)[GlcNAc(b1-4)][GlcNAc(b1-6)]GlcNAc
Procedure, shortened: as §1

[29] = target: GlcNAc(b1-3)[GlcNAc(b1-6)]Gal(b1-4)GlcNAc
Procedure, shortened: as §1

[30] = target: GlcNAc(b1-3)[GlcNAc(b1-6)]GalNAc
Procedure, shortened: as §1

[31] = target: GlcNAc(b1-4)Gal(b1-4)GlcNAc
Procedure, shortened: as §1

GlcNAc(b1-4)GlcNAc = target: GlcNAc(b1-4)GlcNAc
Procedure, shortened: as §1

[32] = target: GlcNAc(b1-4)GlcNAc(b1-4)GlcNAc
Procedure, shortened: as §1

B1: Erv41-EDTA (Saccharomyces cerevisiae), Q04651 (protein)
chain: MKFLVNVALVFMVVYISYIYAAAPEHHHHHHDYDIPTTENLYFQGAMGYIDQQYVVDSQVRDTVQINMDIYVNTKCDWLQINVRDQTMDRKLVLEELQLEEMPFFIPYDTKVNDINEIITPELDEILGEAIPAEFREKLDTRSFFDESDPNKAHLPEFNGCHVFGSIPVNRVSGELQITAKSLGYVASRKAPLEELKFNHVINEFSFGDFYPYIDNPLDNTAQFNQDEPLTTYVYYTSVVPTLFKKLGAEVDTNQYSVNDYRYLYKDVAAKGDKMPGIFFKYNFEPLSIVVSDVRL
glycan array binding signal (z-score) [1]: -0.352 | glycan array binding signal (z-score) [2]: -0.697 | glycan array binding signal (z-score) [3]: -0.341 | glycan array binding signal (z-score) [4]: -0.604 | glycan array binding signal (z-score) [5]: 2.54 | glycan array binding signal (z-score) [6]: -0.977 | glycan array binding signal (z-score) (GlcNAc(b1-3)Fuc): 0.776 | glycan array binding signal (z-score) (GlcNAc(b1-3)Gal): -0.731 | glycan array binding signal (z-score) [7]: -0.349 | glycan array binding signal (z-score) (GlcNAc(b1-3)Gal(b1-4)Glc): -0.219 | glycan array binding signal (z-score) [8]: -0.122 | glycan array binding signal (z-score) [9]: 0.054 | glycan array binding signal (z-score) [10]: 0.097 | glycan array binding signal (z-score) [11]: 0.254 | glycan array binding signal (z-score) [12]: 0.427 | glycan array binding signal (z-score) [13]: 0.194 | glycan array binding signal (z-score) [14]: 0.714 | glycan array binding signal (z-score) [15]: 1.25 | glycan array binding signal (z-score) [16]: 0.272 | glycan array binding signal (z-score) [17]: 1.54 | glycan array binding signal (z-score) [18]: 1.7 | glycan array binding signal (z-score) [19]: 0.832 | glycan array binding signal (z-score) [20]: 0.649 | glycan array binding signal (z-score) [21]: 1.71 | glycan array binding signal (z-score) [22]: -0.987 | glycan array binding signal (z-score) [23]: 0.434 | glycan array binding signal (z-score) [24]: -0.055 | glycan array binding signal (z-score) [25]: -0.737 | glycan array binding signal (z-score) [26]: 0.568 | glycan array binding signal (z-score) [27]: -0.741 | glycan array binding signal (z-score) (GlcNAc(b1-3)GalNAc): -0.153 | glycan array binding signal (z-score) (GlcNAc(b1-3)Man): -1.05 | glycan array binding signal (z-score) [28]: -0.993 | glycan array binding signal (z-score) [29]: 0.788 | glycan array binding signal (z-score) [30]: -0.717 | glycan array binding signal (z-score) [31]: -1.26 | glycan array binding signal (z-score) (GlcNAc(b1-4)GlcNAc): 0.311 | glycan array binding signal (z-score) [32]: -0.16
